PubChem BioAssay AID504784, Drosophila RNAi Screening Center, 2011
The screen tested about 17,000 reagents; below is a random part of those that have a named target and a result. 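Each column is one replicate's B-score; the combined score over replicates was not deposited, so single values may mislead.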 Names joined by + are all predicted targets of the reagent. Not all columns of the deposit are shown. No sequences are given here.

Aim: 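Fly genes whose silencing alters how much lipid cells keep in droplets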 (primary screen)
System: Drosophila Kc167 embryonic cells
Reagents: long dsRNA against Drosophila genes, about 250 ng dsRNA per well
Time to read-out: 4 days
Conditions: cells fed 400 µM oleic acid bound to BSA
Read-out: 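Microscope images give a droplet-to-nucleus area ratio, taken as log and converted to a screen-wide B-score; higher values mean greater lipid storage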
Reading the numbers: droplet/nuclear area B-score: higher = more stored lipid (overstorage)

droplet/nuclear area B-score, replicate 1, by target gene and reagent
Tnks (GeneID 43095): DRSC14154 -1.15
E23 (GeneID 43895): DRSC00425 0.419; DRSC00593 1.3
lncRNA:CR42862 + CG33229: DRSC08497 -0.259
CG14866 (GeneID 41854): DRSC14989 -0.391
Nepl5 (GeneID 33892): DRSC03241 0.246
rdog (GeneID 43450): DRSC14431 -0.961
CG4020 (GeneID 31522): DRSC18337 2.66
cos (GeneID 35653): DRSC07598 -0.843
CG32102 (GeneID 317854): DRSC22015 0.0522
CG18081 (GeneID 39725): DRSC10294 -0.05
CG8209 (GeneID 38888): DRSC10970 -1.71
bb8 (GeneID 42756): DRSC15578 0.134
CG31636 (GeneID 318865): DRSC02276 -1.73
CG8191 (GeneID 32511): DRSC20091 1.29
na (GeneID 45338): DRSC19639 0.035
Tengl2 (GeneID 318044): DRSC21968 4.26
CG15725 (GeneID 32224): DRSC19691 -0.328
CG11663 (GeneID 31036): DRSC17793 1.93; DRSC23063 -2.7
eIF3b (GeneID 36981): DRSC06900 0.986
CG4612 (GeneID 37914): DRSC04478 0.907
l(1)G0004 (GeneID 33033): DRSC20486 0.774
CG6665 (GeneID 36903): DRSC07006 -1.13
mfr (GeneID 39016): DRSC10543 1.55
CG17919 (GeneID 40780): DRSC12571 -0.594
Cyp6a23 (GeneID 36661): DRSC07383 2.13
Arr2 (GeneID 38993): DRSC09670 0.924
Mctp (GeneID 37165): DRSC06510 -0.821; DRSC22896 -0.411

10 neighbouring entries from above, quoted:
droplet/nuclear area B-score, replicate 1, by target gene and reagent
CG18081 (GeneID 39725): DRSC10294 -0.05
CG8209 (GeneID 38888): DRSC10970 -1.71
bb8 (GeneID 42756): DRSC15578 0.134
CG31636 (GeneID 318865): DRSC02276 -1.73
CG8191 (GeneID 32511): DRSC20091 1.29
na (GeneID 45338): DRSC19639 0.035
Tengl2 (GeneID 318044): DRSC21968 4.26
CG15725 (GeneID 32224): DRSC19691 -0.328
CG11663 (GeneID 31036): DRSC17793 1.93; DRSC23063 -2.7

The list goes on:
droplet/nuclear area B-score, replicate 1, by target gene and reagent
cni (GeneID 34967): DRSC03512 -2.65
CG13674 (GeneID 38921): DRSC10033 1.89
tw (GeneID 31024): DRSC18537 -0.407
CG32302 (GeneID 38293): DRSC08340 2.08
CG30103 (GeneID 36969): DRSC06894 0.401
Nelf-A (GeneID 42520): DRSC15903 1.12
CG7220 (GeneID 36129): DRSC05235 0.706; DRSC07018 0.174
CG16719 (GeneID 39131): DRSC10222 -1.17
mRpL49 (GeneID 32242): DRSC19908 0.163
Remo (GeneID 2768909): DRSC19710 3.19
BomS5 (GeneID 50207): DRSC22306 0.239
CG8349 (GeneID 34124): DRSC03083 1.09
Sodq (GeneID 43133): DRSC15924 0.348
RpS24 (GeneID 37589): DRSC04414 3.3
CG15422 (GeneID 33615): DRSC00436 -0.187
CG16753 (GeneID 38365): DRSC08489 0.157
stan (GeneID 36125): DRSC05234 -0.875; DRSC07697 -0.359
nAChRalpha3 (GeneID 31767): DRSC18800 -0.0202
CG13850 (GeneID 42630): DRSC14700 -0.199
ZC3H3 (GeneID 38968): DRSC10696 1.53
CG32982 (GeneID 34237): DRSC02677 -1.71; DRSC03268 -0.694; DRSC03269 -0.228; DRSC21912 4.25
CG7579 (GeneID 39714): DRSC10885 -1.23
CG30460 (GeneID 36924): DRSC06559 0.391; DRSC06560 -1.43; DRSC23115 -0.112
uno (GeneID 35778): DRSC07244 0.436
Jon99Ciii (GeneID 43543): DRSC16859 0.34
aop (GeneID 33392): DRSC00801 3.09; DRSC22999 -0.162
CG17883 (GeneID 3355139): DRSC07838 0.213
Jheh2 (GeneID 37181): DRSC06530 0.985
CG5773 (GeneID 37053): DRSC06955 0.899
CG10748 (GeneID 39469): DRSC09797 -0.461
CG31482 (GeneID 40806): DRSC12582 1.75
HemK2 + Snapin: DRSC00736 -1.13; DRSC00737 -1.11
CG13108 (GeneID 34240): DRSC02206 -0.124
CG33769 (GeneID 3772499): DRSC11716 -0.75
sac (GeneID 40568): DRSC12237 0.241
CG30487 (GeneID 246646): DRSC05377 0.331
AlaRS-m (GeneID 38595): DRSC09660 -0.157
Zw10 (GeneID 47874): DRSC18793 -1.64
CG13361 (GeneID 31019): DRSC17896 -0.386
Rheb (GeneID 117332): DRSC12148 1.78
CG17574 (GeneID 36415): DRSC06681 -0.763
Tektin-A (GeneID 34934): DRSC01921 -0.0018
CG17177 (GeneID 39601): DRSC10257 -1.57
CG17742 (retired record) (GeneID 38787): DRSC10285 -0.211
